No constants are given. Whether binding was seen depends on the method and setting. Binding seen in cells or lysates may run through a third protein. A yes stands for co-enrichment or nearness to the bait. Other partners may have been found. A no says only that the protein was not detected with the bait.
B1: phosducin-like protein 3 (PDCL3), endogenous in HPMEC (protein, UniProt Q9H2J4 1-239)
chain: MQDPNADTEWNDILRKKGILPPKESLKELEEEAEEEQRILQQSVVKTYEDMTLEELEDHEDEFNEEDERAIEMYRRRRLAEWKATKLKNKFGEVLEISGKDYVQEVTKAGEGLWVILHLYKQGIPLCALINQHLSGLARKFPDVKFIKAISTTCIPNYPDRNLPTIFVYLEGDIKAQFIGPLVFGGMNLTRDELEWKLSESGAIMTDLEENPKKPIEDVLLSSVRRSVLMKRDSDSEGD

Chains of the proteins cited; added tags and fusions are not shown. Residues count along the entry.
UniProt P13612, residues 34-1032: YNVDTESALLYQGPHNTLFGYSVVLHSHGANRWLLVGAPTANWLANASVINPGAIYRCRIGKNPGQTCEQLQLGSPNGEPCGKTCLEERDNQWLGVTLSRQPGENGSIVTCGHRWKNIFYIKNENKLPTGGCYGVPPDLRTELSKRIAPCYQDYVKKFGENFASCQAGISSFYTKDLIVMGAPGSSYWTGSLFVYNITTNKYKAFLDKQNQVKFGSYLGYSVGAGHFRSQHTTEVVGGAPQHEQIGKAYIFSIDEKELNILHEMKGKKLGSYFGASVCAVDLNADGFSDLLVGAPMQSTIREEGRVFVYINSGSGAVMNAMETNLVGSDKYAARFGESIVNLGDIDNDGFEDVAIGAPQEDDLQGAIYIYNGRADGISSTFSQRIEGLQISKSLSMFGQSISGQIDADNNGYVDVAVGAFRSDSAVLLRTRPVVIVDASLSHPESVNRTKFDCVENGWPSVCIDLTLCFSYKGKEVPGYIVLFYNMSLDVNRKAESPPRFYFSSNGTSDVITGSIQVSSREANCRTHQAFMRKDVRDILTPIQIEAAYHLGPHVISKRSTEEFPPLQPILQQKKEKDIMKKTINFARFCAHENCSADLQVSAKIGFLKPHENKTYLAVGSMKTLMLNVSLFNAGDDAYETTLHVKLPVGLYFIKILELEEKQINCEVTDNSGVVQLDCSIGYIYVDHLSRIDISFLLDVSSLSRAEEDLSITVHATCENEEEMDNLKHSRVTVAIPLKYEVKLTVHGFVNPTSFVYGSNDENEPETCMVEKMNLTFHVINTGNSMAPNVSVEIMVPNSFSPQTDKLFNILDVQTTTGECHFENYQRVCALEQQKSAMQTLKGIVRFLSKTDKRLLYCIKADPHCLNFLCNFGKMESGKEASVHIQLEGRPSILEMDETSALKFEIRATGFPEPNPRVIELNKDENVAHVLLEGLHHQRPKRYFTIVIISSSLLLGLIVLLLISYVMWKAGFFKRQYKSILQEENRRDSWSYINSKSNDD
UniProt P52799, residues 28-333: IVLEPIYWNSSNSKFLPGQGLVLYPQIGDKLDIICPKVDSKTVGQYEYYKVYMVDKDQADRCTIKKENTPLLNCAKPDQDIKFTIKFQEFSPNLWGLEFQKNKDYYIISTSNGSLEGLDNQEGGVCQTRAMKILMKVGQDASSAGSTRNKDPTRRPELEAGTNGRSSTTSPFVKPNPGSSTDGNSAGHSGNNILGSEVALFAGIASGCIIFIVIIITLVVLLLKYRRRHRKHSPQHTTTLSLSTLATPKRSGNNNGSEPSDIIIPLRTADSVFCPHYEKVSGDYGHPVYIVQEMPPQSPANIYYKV
UniProt P48357, residues 22-1165: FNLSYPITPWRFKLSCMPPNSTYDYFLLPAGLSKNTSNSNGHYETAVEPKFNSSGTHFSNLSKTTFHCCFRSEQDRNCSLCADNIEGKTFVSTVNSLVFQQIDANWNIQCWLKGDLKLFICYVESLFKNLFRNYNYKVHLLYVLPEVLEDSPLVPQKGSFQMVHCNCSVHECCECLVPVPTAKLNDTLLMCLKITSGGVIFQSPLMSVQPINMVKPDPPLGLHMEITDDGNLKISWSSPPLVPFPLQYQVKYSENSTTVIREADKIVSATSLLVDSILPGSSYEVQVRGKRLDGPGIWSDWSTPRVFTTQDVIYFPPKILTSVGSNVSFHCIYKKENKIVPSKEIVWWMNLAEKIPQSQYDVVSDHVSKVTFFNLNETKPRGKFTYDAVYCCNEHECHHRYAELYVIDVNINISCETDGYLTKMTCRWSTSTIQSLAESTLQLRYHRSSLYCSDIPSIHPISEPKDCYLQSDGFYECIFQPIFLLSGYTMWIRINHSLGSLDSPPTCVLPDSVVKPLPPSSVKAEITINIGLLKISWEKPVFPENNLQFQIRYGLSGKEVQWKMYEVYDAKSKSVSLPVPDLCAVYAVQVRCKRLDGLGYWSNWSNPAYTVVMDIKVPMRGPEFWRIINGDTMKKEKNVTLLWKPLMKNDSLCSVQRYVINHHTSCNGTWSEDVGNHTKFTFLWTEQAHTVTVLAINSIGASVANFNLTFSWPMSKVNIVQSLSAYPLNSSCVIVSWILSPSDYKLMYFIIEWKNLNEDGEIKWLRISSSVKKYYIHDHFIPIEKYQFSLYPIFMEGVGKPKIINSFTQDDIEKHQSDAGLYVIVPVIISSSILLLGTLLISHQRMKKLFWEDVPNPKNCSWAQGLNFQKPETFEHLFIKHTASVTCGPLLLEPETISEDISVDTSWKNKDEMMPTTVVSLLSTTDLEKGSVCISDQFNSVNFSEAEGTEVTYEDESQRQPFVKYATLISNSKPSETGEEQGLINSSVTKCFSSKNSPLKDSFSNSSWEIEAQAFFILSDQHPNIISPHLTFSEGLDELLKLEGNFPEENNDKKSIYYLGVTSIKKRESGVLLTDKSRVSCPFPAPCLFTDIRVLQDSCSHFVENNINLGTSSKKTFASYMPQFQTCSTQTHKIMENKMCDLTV

Each molecule was assayed against DENV NS1-HA, wildtype (DENV2 NS1-His-HA) (dengue virus serotype 2) (UniProt P29990) (assay: affinity purification with mass spectrometry; only the target purified).

| Molecule | binding |
| --- | --- |
| integrin alpha 4 (ITGA4), endogenous in HPMEC (from UniProt P13612 34-1032) | binds |
| EFNB2, endogenous in HPMEC (from UniProt P52799 28-333) | no binding |
| leptin receptor (LEPR), endogenous in HPMEC (from UniProt P48357 22-1165) | binds |
| B1 | binds |
